Experimental data taken from patent publication US12595239B2, “Substituted isoxazoline derivatives” (BASF SE, priority 2021, dated 2026).
Some entries share one result that the patent states for a list of compounds. For at least one compound, name, drawing or mass did not settle the structure.

How the values were obtained:
Type in all cases: in vivo
Anthonomus grandis = assay: B.1 Boll weevil (Anthonomus grandis), 96-well microtiter plate diet test; conditions: 2500 ppm; egg and larval mortality, 5 days
Myzus persicae = assay: B.3 Green Peach Aphid (mixed life stages), systemic artificial diet test; conditions: 2500 ppm; treated aphid diet, 3 days
Method in brief: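 Compounds, formulated in 25% DMSO/75% water, were mixed at several concentrations into liquid artificial diet under a membrane, two replicates. 5–8 adult aphids fed on treated diet for 3 days at about 23±1 °C, 50±5% RH. Mortality and fecundity were scored visually.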

Heliothis virescens = assay: B.4 Tobacco Budworm, microtiter plate diet test; conditions: 2500 ppm; egg and larval mortality, 5 days
Method in brief: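 Compounds in 25% DMSO/75% water sprayed at various concentrations onto diet in microtiter wells each holding 15-25 H. virescens eggs, two replicates. Plates kept 5 days at about 28±1 °C and 80±5% relative humidity; egg and larval mortality then scored visually.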

Plutella xylostella = assay: B.6 Diamond Back Moth, cabbage leaf disc dip test; conditions: 300 ppm; 3rd instar larvae, 72 hours after treatment
Method in brief: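 Cabbage leaf discs were dipped in compound in 1:1 water:acetone with 0.01% surfactant, air-dried, then infested with ten 3rd instar larvae. Mortality read at 72 h after treatment, with feeding damage scored on a 0–100% scale.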

Dichromothrips corbetti = assay: B.7 Orchid Thrips, floral-immersion test; conditions: 300 ppm; adult thrips, 72 hours after treatment
Method in brief: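 Orchid petals were dipped in compound diluted in 1:1 acetone:water with 0.01% v/v Kinetic, dried, then sealed with about 20 lab-colony adult thrips. Arenas were held in the dark at about 28 °C, and percent mortality was scored 72 h after treatment.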

Spodoptera eridania = assay: B.11 Southern Armyworm 2nd instar larvae, lima bean foliar spray test; conditions: 300 ppm, 4 days after treatment
Method in brief: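 Compounds diluted in 50% acetone/water with 0.01% nonionic surfactant and electrostatically sprayed onto lima bean plants (Sieva) at 1st true leaf stage. After drying, 10–11 larvae per bagged pot, held at about 25 °C, 20–40% RH, 14:10 photoperiod. Mortality and reduced feeding scored at 4 days versus untreated plants.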

Bemisia argentifolii = assay: B.12 Silverleaf Whitefly (adults), cotton plant spray test; conditions: 300 ppm, 3 days after treatment
Description: The active compounds were formulated by a Tecan liquid handler in 100% cyclohexanone as a 10,000-ppm solution supplied in tubes. The 10,000-ppm solution was serially diluted in 100% cyclohexanone to make interim solutions. These served as stock solutions for which final dilutions were made by the Tecan in 50% acetone:50% water (v/v) into 5 or 10 ml glass vials. A nonionic surfactant (Kinetic®) was included in the solution at a volume of 0.01% (v/v). The vials were then inserted into an automated electrostatic sprayer equipped with an atomizing nozzle for application to plants/insects. Cotton plants at the cotyledon stage (one plant per pot) were sprayed by an automated electrostatic plant sprayer equipped with an atomizing spray nozzle. The plants were dried in the sprayer fume hood and then removed from the sprayer. Each pot was placed into a plastic cup and about 10 to 12 whitefly adults (approximately 3-5 days old) were introduced. The insects were collected using an aspirator and a nontoxic Tygon® tubing connected to a barrier pipette tip. The tip, containing the collected insects, was then gently inserted into the soil containing the treated plant, allowing insects to crawl out of the tip to reach the foliage for feeding. Cups were covered with a reusable screened lid. Test plants were maintained in a growth room at about 25° C. and about 20-40% relative humidity for 3 days, avoiding direct exposure to fluorescent light (14:10 light:dark photoperiod) to prevent trapping of heat inside the cup. Mortality was assessed 3 days after treatment, compared to untreated control plants.

Aedes aegypti = conditions: 2500 ppm; larval mortality, 2 days
Nezara viridula = assay: B.8 Green Soldier Stink Bug, soybean pod spray test; conditions: 300 ppm; late 3rd instar, after 5 days
Description: The active compound was dissolved at the desired concentration in a mixture of 1:1 (vol:vol) distilled water:aceteone. Surfactant (Kinetic) was added at a rate of 0.01% (vol/vol). The test solution was prepared at the day of use. Soybean pods were placed in 90×50 mm glass Petri dishes lined with moistened filter paper and inoculated with ten late 3rd instar N. viridula. Using a hand atomizer, an approximately 2 ml solution was sprayed into each Petri dish. Treated setup was kept at about 25-26° C. and relative humidity of about 65-70%. Percent mortality was recorded after 5 days.

Measured: mortality in comparison with untreated controls

CCOCn1ccc(C2(NC(=O)c3cc(NC4=NOC(c5cc(Cl)cc(Cl)c5)(C(F)(F)F)C4)ccc3Cl)CC2)n1 (centres unmarked) [I-153]
not listed: Aedes aegypti | Nezara viridula
at least 75%: all other assays above

CCN(C1=NOC(c2cc(Cl)cc(Cl)c2)(C(F)(F)F)C1)c1cc(Cl)c(C(=O)NC2(C#N)CC2)s1 (racemic) [I-156]
at least 75%: Heliothis virescens | Plutella xylostella | Dichromothrips corbetti | Spodoptera eridania | Bemisia argentifolii

CN1N=C(NC(=O)c2cc(N(C)C3=NOC(c4cc(Cl)cc(Cl)c4)(C(F)(F)F)C3)ccc2Cl)CC1=O (centres unmarked) [I-130]
at least 75%: Aedes aegypti | Plutella xylostella | Dichromothrips corbetti | Spodoptera eridania | Bemisia argentifolii

O=C(Nc1cccn(CC(F)(F)F)c1=O)c1cc(NC2=NOC(c3ccc(F)c(Cl)c3)(C(F)(F)F)C2)ccc1Cl (centres unmarked) [I-109]
at least 75%: Anthonomus grandis | Plutella xylostella | Spodoptera eridania | Bemisia argentifolii

CCN1OCC(NC(=O)c2cc(NC3=NOC(c4cc(Cl)cc(Cl)c4)(C(F)(F)F)C3)ccc2C)C1=O (centres unmarked) [I-102]
not listed: Bemisia argentifolii
at least 75%: all other assays above

CCN1OCC(NC(=O)c2cc(N(CC)C3=NOC(c4cc(Cl)c(F)c(Cl)c4)(C(F)(F)F)C3)ccc2C)C1=O (centres unmarked) [I-154]
not listed: Bemisia argentifolii
at least 75%: all other assays above

O=C(NC1CC1)c1cc(NC2=NOC(c3cc(Cl)cc(Cl)c3)(C(F)(F)F)C2)ccc1OC(F)(F)F (centres unmarked) [I-72]
not listed: Bemisia argentifolii
at least 75%: all other assays above

Cc1ccc(NC2=NOC(c3cc(Cl)cc(Cl)c3)(C(F)(F)F)C2)cc1C(=O)NC1CC1 (centres unmarked) [I-68]
not listed: Bemisia argentifolii
at least 75%: all other assays above

N#CC1(NC(=O)c2cc(NC3=NOC(c4cc(Cl)cc(SC(F)(F)F)c4)(C(F)(F)F)C3)ccc2Cl)CC1 (centres unmarked) [I-165]
not listed: Bemisia argentifolii
at least 75%: all other assays above

CN(C1=NOC(c2cc(Cl)cc(Cl)c2)(C(F)(F)F)C1)c1ccc(Cl)c(C(=O)NC2(C#N)CC2)c1 (centres unmarked) [I-143]
at least 75%: Anthonomus grandis | Heliothis virescens | Aedes aegypti | Plutella xylostella | Bemisia argentifolii

N#Cc1c(NC2=NOC(c3cc(Cl)cc(Cl)c3)(C(F)(F)F)C2)cccc1C(=O)NC1(C#N)CC1 (centres unmarked) [I-93]
at least 75%: Plutella xylostella | Dichromothrips corbetti | Spodoptera eridania | Bemisia argentifolii

CCn1ncn(NC(=O)c2cc(NC3=NOC(c4cc(Cl)c(F)c(Cl)c4)(C(F)(F)F)C3)ccc2Cl)c1=O (centres unmarked) [I-76]
not listed: Bemisia argentifolii
at least 75%: all other assays above

N#CC1(NC(=O)c2cc(N(CC3CSSC3)C3=NOC(c4cc(Cl)cc(Cl)c4)(C(F)(F)F)C3)ccc2Cl)CC1 (centres unmarked) [I-160]
not listed: Myzus persicae | Nezara viridula
at least 75%: all other assays above

N#CCN(C1=NOC(c2cc(Cl)cc(Cl)c2)(C(F)(F)F)C1)c1ccc(Cl)c(C(=O)NC2(C#N)CC2)c1 (centres unmarked) [I-55]
not listed: Bemisia argentifolii
at least 75%: all other assays above

N#CC1(NC(=O)c2cc(NC3=NOC(c4cc(Cl)cc(Cl)c4)(C(F)(F)F)C3)ccc2C(F)(F)F)CC1 (centres unmarked) [I-79]
not listed: Myzus persicae | Nezara viridula
at least 75%: all other assays above

O=C(NCC(F)(F)F)c1nc(NC2=NOC(c3cc(Cl)cc(Cl)c3)(C(F)(F)F)C2)ccc1Cl (centres unmarked) [I-80]
at least 75%: Plutella xylostella | Dichromothrips corbetti | Spodoptera eridania | Bemisia argentifolii
